In publication PMC3317945:
These are yes or no findings as the source states them, for the method shown. Some entries that bind do so weakly or less than the wild type.

Chains of the proteins cited; added tags and fusions are not shown. Residues count along the entry.
UniProt P37231, residues 201-503: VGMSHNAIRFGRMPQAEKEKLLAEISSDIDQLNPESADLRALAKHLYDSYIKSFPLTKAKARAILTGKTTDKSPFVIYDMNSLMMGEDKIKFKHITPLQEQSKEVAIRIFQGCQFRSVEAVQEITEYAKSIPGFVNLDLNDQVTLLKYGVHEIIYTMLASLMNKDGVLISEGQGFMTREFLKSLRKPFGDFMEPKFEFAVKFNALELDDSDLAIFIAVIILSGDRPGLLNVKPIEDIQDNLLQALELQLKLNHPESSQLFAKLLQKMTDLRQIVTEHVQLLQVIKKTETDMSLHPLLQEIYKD

Columns and labels:
[1] = target: PPARγ-LBD (amino acids 173–475) (UniProt P37231); test: condition: only without the agonist (GW949); 1 µM PPARγ-LBD, 10 nM DRIP2; fluorescence polarisation; without agonist; 10 nM Texas-Red DRIP2, 1 µM PPARγ-LBD; 20 mM TRIS pH 7.5, 100 mM NaCl, 0.01% NP-40, 2% DMSO; MT19c dilution series; equilibrated two hours; 384 well plate; both purified
[2] = target: PPARγ-LBD (amino acids 173–475) (UniProt P37231); test: fluorescence polarisation; with agonist (rosiglitazone 5 µM in the methods; GW929 in the legend, GW949 in the results); 10 nM Texas-Red DRIP2, 1 µM PPARγ-LBD; 20 mM TRIS pH 7.5, 100 mM NaCl, 0.01% NP-40, 2% DMSO; MT19c dilution series; equilibrated two hours; 384 well plate; both purified

binding [1]: no binding | binding [2]: binds
Binder: CNTKNHPMLMNLLKDNPAQD (labeled with Texas-Red maleimide) [DRIP2 (…) labeled with Texas-Red maleimide]
